Experimental data taken from patent publication US20090082464A1, “EXTERNALLY MASKED NEOPENTYL SULFONYL ESTER CYCLIZATION RELEASE PRODRUGS OF ACAMPROSATE, COMPOSITIONS THEREOF, AND METHODS OF USE” (priority 2007, published 2009).
Some of these results come from one statement about several compounds together. The name of at least one read-out is uncertain.

Assay: Bioavailability of acamprosate following oral administration of acamprosate prodrugs to rats
Type: in vivo
Settings: oral gavage, 70 mg-equivalents acamprosate per kg in 3.4% Phosal, adult male Sprague-Dawley rats; F% from AUC vs intravenous acamprosate, dose normalized

Row | SMILES | acamprosate oral bioavailability relative to oral administration of an equivalent dose of acamprosate itself
1 | CC(=O)NCCCS(=O)(=O)OCC(C)(C)CCOC(=O)c1ccccc1 [Compound 32, 4-{[3-(Acetylamino)propyl]sulfonyloxy}-3,3-dimethylbutyl Benzoate] | at least 5 times
2 | CC(=O)NCCCS(=O)(=O)OCC(C)(C)CCNC(=O)OCCOC(=O)C(C)C [Compound 22, [N-(4-{[3-(Acetylamino)propyl]sulfonyloxy}-3,3-dimethyl-butyl)carbamoyloxy]ethyl 2-methylpropanoate] | at least 5 times
